The target in the assay is T1, myc-tagged SETD3 (SET domain-containing 3) (UniProt Q86TU7).
T1 sequence: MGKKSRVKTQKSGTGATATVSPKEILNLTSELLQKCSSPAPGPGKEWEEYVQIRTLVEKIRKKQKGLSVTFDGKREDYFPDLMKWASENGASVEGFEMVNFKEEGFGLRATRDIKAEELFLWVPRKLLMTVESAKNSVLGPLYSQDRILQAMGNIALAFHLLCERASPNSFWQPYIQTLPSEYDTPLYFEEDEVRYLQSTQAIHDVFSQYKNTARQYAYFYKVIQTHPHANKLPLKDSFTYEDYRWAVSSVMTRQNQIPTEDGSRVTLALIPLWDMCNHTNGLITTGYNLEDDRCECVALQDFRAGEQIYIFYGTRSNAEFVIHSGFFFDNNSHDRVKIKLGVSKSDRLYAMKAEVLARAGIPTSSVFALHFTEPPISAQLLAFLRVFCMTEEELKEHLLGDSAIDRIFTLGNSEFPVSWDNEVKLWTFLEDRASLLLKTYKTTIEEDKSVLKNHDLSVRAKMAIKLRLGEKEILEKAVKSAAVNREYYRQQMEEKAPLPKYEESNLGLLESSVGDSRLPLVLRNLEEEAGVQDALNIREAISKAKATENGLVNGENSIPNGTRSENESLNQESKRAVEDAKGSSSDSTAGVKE
As to the kind of experiment: co-IP; truncated mutants of USP27 tested with SETD3 (Fig. 1I) and of SETD3 with USP27 (Fig. 1J), 'as indicated'; method, cells and tags not named for these panels.

Results are given in words; binding and its absence hold for the method and conditions named. Binding seen in cells or lysates may run through a third protein. Sequences can lack the tags named with a protein.

In the case of “USP27 truncated mutant with the C-terminal UCH domain deleted (domain or fragment)”, the binding result is given as “no binding”.

The record behind these values is PMC8752572.
